PubChem BioAssay AID652259, Drosophila RNAi Screening Center, 2013
The deposit covers about 22,000 reagents; shown is a random part of those with a known target gene and a result. Of all reagents, 233 (1.1%) were called active. 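Light values are raw, unnormalised plate reads; the ratio scores behind the reporter calls were not deposited.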 A plus sign joins genes that one reagent is predicted to hit. Reagent sequences are not shown. The record does not give: the amount of reagent, the time to read-out, the dose of the treatment.

Aim: 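Identify new Wingless signalling regulators in fly cells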 (primary screen)
Cell system: Drosophila clone 8 imaginal disc epithelial cells
Knock-down reagent: long dsRNA against Drosophila genes
Conditions: pathway stimulated by co-transfected Wingless expression plasmid
Read-out: 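Firefly luciferase from a tcf-site Wingless reporter, measured alongside co-transfected Renilla luciferase that tracks transfection; pathway stimulated by a Wingless plasmid; the firefly-to-Renilla ratio is not deposited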
Direction: firefly reporter light: higher = more Wg reporter light, before normalisation; Renilla control light: higher = more transfected or surviving cells
Rule for the call: 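a knock-down is a candidate when at least two out of four statistical tests show it departing from its plate mean; one test alone signals a weak candidate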
Calls: active = candidate regulator (raises or lowers reporter); inactive = not a candidate

no.	predicted target	amplicon	reporter change call, replicate 1	firefly reporter light, replicate 1	firefly reporter light, replicate 2	Renilla control light, replicate 1	Renilla control light, replicate 2	outcome
1	Aptx (aprataxin)	DRSC15768		14588		3688		inactive
2	stc (shuttle craft)	DRSC03620		4224		1539		inactive
3	CG11807	DRSC06087		9016		2352		inactive
4	vg (vestigial)	DRSC07715		11666		4304		inactive
5	vg (vestigial)	DRSC22669		4.80e5	4.92e5	2.22e5	1.77e5	inactive
6	beta4GalNAcTB (beta1,4-N-acetylgalactosaminyltransferase B)	DRSC14869		6690		2930		inactive
7	Cul3 (Cullin 3)	DRSC03537		5911		2193		inactive
8	Cul3 (Cullin 3)	DRSC21525		5.03e5	6.29e5	2.66e5	2.09e5	inactive
9	List (Lithium-inducible SLC6 transporter)	DRSC06520		5849		2283		inactive
10	CG33758	DRSC05158		14488		7517		inactive
11	CG14537	DRSC02395		3178	7168	912	3653	inactive
12	CG16972	DRSC02550		16330		2349		inactive
13	Xxylt (Xyloside xylosyltransferase)	DRSC04107		11837		3921		inactive
14	CG8654	DRSC07231		6049		2345		inactive
15	CG43095	DRSC13573		2285		1395		inactive
16	Spt20	DRSC10280	Wg reporter activity raised	7360		752		active
17	baz (bazooka)	DRSC20309		21138		7498		inactive
18	SerRS (Seryl-tRNA synthetase)	DRSC00496		10058		5225		inactive
19	Cyp313a4 (Cytochrome P450 313a4)	DRSC16627		12240		2801		inactive
20	CG16779	DRSC15153		10947		2023		inactive
21	CycB (Cyclin B)	DRSC04605		5783		1626		inactive
22	CG15927	DRSC19742		19733		10082		inactive
23	spir (spire)	DRSC03619		2565	9625	517	3452	inactive
24	inaE (inactivation no afterpotential E)	DRSC19376		23857		14615		inactive
25	inaE (inactivation no afterpotential E)	DRSC19377		1861	6375	1121	2583	inactive
26	inaE (inactivation no afterpotential E)	DRSC19379		21869	7.23e5	19163	3.27e5	inactive
27	inaE (inactivation no afterpotential E)	DRSC19726		25673		14871		inactive
28	fd102C (forkhead domain 102C)	DRSC17203		27354		18807		inactive
29	Ip259 (Intronic Protein 259)	DRSC03352		8514		1413		inactive
30	pxb	DRSC13110		3912		1148		inactive
31	pxb	DRSC14996		24898	8.50e5	7003	1.48e5	inactive
32	pxb	DRSC14997		19558		6116		inactive
33	pxb	DRSC22225		5.19e5	5.33e5	2.64e5	2.57e5	inactive
34	CG7220	DRSC05235		14690		11632		inactive
35	CG7220	DRSC07018		1989	7106	681	3181	inactive
36	VhaPPA1-2 (Vacuolar H[+] ATPase PPA1 subunit 2)	DRSC16176		15460		2845		inactive
37	CG42792	DRSC01515		22948		9600		inactive
38	Vha100-1 (Vacuolar H[+] ATPase 100kD subunit 1)	DRSC14148		2819	5456	711	1801	inactive
39	Elp5 (Elongator complex protein 5)	DRSC08547		4743		2125		inactive
40	Ppcs (Phosphopantothenoylcysteine synthetase)	DRSC14127		2044	6665	673	2275	inactive
41	CG3515	DRSC00609		3157	5756	1115	2598	inactive
42	Pu (Punch)	DRSC04645		13193		2674		inactive
43	didum (dilute class unconventional myosin)	DRSC07603		1859	6788	576	2163	inactive
44	CG9875	DRSC04585		3152	8887	768	3049	inactive
45	cbt (cabut)	DRSC00655		8688		3308		inactive
46	CG5808	DRSC14124		1928	5004	848	1433	inactive
47	PAN3 (Poly(A) specific ribonuclease subunit PAN3)	DRSC08190		3841		1248		inactive
48	Gagr (Gag-related)	DRSC10441		5411		2214		inactive
49	Marc (Mitochondrial amidoxime reducing component)	DRSC06614		3600	10435	1008	3637	inactive
50	CG32073	DRSC09087		4283		1808		inactive
51	CG32073	DRSC09894		6680		3130		inactive
52	CG43331	DRSC11671		21227		7925		inactive
53	egg (eggless)	DRSC04119		17232		4325		inactive
54	egg (eggless)	DRSC22534		1.08e6	1.11e6	6.06e5	1.80e5	inactive
55	spict (spichthyin)	DRSC02157		8098		2856		inactive
56	Inx5 (Innexin 5)	DRSC20051		14391		7846		inactive
57	Map60 (Microtubule-associated protein 60)	DRSC07464		13568		3953		inactive
58	Idi (Isopentenyl-diphosphate delta isomerase)	DRSC15918		3500	5206	1427	2000	inactive
59	yellow-b	DRSC03639		3746		1865		inactive
60	GXIVsPLA2	DRSC10243		5792		2028		inactive
61	Cpr57A + Obp57d	DRSC06708		7834		2054		inactive
62	Cpr57A + Obp57d	DRSC22719		4.18e5	3.68e5	1.19e5	1.27e5	inactive
63	stumps	DRSC13045		4378		932		inactive
64	stumps	DRSC15332		7353		2048		inactive
65	stumps	DRSC17073		5090		2149		inactive
66	DCP2 (Decapping protein 2)	DRSC09399		3340		1410		inactive
67	DCP2 (Decapping protein 2)	DRSC10597		4624		1927		inactive
68	CG18180	DRSC10304		1808		920		inactive
69	Trf5 (TBP-related factor 5)	DRSC00412		2714	5714	1325	3288	inactive
70	betaggt-I (beta subunit of type I geranylgeranyl transferase)	DRSC03494		2156	8100	923	2544	inactive
71	CG14947	DRSC02429		3457	5408	1069	2193	inactive
72	lost	DRSC12002		2653		1104		inactive
73	lost	DRSC12234		10560		4444		inactive
74	lost	DRSC21987		7.07e5	6.24e5	2.58e5	2.43e5	inactive
